Paper PMC5622110
No constants are given. Whether binding was seen depends on the method and setting. Binding seen in cells or lysates may run through a third protein. Some entries that bind do so weakly or less than the wild type.

Amino acid sequences for entries named in this document (tags omitted). A change or cut given only in a name is not applied to a line headed by its entry. Chains listed by the source or under a name are the forms on record and can include a tag or linker.
UniProt P13569: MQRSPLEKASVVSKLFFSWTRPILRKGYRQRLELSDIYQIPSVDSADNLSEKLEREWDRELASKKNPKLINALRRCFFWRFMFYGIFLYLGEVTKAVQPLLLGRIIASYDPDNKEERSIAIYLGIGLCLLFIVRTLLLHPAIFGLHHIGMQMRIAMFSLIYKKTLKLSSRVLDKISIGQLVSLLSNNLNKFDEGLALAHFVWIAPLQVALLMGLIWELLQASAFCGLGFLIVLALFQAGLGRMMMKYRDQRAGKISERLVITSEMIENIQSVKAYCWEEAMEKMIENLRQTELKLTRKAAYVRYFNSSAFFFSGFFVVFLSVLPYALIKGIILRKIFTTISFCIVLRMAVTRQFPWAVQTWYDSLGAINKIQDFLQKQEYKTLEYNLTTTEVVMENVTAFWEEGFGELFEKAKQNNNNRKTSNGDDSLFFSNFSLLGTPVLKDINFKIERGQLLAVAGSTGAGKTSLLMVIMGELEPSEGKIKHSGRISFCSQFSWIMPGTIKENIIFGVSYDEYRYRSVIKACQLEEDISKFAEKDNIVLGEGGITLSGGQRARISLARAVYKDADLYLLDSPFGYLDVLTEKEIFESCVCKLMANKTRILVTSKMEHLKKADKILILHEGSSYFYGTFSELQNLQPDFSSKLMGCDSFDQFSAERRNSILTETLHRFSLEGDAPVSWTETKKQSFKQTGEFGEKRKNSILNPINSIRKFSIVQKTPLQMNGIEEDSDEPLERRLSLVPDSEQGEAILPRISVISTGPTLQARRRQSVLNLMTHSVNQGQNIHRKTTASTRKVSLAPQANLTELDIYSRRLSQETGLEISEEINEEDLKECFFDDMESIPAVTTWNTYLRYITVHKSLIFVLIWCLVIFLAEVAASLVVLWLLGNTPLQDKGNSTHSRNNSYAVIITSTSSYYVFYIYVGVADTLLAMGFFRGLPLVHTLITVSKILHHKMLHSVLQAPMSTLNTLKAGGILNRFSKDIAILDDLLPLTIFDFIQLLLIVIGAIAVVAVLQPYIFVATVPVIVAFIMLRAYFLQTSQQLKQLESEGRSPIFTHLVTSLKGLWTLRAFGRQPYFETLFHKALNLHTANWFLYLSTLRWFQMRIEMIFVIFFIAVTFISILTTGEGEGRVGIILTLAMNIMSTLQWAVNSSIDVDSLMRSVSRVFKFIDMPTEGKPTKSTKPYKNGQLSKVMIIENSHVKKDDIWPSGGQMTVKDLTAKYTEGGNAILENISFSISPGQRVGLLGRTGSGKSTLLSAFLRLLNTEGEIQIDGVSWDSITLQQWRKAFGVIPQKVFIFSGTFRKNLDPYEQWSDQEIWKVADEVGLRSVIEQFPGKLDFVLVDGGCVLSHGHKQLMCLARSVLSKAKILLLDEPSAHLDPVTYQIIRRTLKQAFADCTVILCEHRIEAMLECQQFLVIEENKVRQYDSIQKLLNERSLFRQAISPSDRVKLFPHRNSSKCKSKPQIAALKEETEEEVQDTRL
F508del-CFTR (P13569, form named): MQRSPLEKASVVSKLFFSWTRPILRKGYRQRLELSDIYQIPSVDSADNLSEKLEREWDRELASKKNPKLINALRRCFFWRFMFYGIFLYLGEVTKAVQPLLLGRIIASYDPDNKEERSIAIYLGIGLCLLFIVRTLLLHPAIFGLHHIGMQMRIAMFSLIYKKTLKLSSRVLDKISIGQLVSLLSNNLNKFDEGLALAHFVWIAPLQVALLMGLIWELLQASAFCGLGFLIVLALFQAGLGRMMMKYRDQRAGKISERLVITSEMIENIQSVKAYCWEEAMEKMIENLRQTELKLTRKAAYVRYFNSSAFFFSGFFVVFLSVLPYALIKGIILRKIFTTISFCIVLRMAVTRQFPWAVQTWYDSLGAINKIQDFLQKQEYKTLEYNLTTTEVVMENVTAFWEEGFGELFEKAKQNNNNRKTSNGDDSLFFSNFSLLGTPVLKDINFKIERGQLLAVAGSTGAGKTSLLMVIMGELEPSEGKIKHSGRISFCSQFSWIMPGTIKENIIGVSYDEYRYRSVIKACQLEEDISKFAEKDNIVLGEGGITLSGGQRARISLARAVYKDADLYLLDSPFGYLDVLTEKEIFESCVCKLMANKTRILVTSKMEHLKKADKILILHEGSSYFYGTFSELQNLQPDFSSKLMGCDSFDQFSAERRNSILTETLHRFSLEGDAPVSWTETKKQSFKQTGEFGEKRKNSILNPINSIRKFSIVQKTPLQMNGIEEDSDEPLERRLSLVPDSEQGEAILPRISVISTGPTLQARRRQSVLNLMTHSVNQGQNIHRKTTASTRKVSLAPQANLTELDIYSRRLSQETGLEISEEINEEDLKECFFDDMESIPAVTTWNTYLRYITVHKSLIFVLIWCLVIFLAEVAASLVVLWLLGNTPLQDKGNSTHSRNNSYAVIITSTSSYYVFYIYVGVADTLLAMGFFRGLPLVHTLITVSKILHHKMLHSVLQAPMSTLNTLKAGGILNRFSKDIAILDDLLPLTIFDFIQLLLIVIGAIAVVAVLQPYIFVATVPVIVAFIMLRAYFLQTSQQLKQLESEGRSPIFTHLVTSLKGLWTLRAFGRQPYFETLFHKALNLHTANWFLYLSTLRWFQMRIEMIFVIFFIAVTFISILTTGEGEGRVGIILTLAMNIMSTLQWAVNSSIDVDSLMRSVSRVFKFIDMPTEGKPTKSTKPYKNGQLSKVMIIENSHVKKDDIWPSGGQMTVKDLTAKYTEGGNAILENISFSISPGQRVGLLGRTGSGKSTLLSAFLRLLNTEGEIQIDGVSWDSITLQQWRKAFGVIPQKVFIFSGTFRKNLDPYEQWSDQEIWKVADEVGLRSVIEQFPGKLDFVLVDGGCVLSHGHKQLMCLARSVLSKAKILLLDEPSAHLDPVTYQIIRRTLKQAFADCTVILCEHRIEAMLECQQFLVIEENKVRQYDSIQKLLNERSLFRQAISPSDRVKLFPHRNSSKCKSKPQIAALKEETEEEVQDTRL

How the values were obtained:
TMEM16F = target: T1, TMEM16F (UniProt Q4KMQ2); test: co-IP; cells lysed in 0.5% CHAPS lysis buffer with protease inhibitors; 500 µg protein with 6 µg antibody and protein G agarose, 4 °C overnight; three washes; Western blot; CFBE cells (wt and dF508) by text and methods, HEK293 overexpressing cells by the legend of Figure 6
T1 sequence: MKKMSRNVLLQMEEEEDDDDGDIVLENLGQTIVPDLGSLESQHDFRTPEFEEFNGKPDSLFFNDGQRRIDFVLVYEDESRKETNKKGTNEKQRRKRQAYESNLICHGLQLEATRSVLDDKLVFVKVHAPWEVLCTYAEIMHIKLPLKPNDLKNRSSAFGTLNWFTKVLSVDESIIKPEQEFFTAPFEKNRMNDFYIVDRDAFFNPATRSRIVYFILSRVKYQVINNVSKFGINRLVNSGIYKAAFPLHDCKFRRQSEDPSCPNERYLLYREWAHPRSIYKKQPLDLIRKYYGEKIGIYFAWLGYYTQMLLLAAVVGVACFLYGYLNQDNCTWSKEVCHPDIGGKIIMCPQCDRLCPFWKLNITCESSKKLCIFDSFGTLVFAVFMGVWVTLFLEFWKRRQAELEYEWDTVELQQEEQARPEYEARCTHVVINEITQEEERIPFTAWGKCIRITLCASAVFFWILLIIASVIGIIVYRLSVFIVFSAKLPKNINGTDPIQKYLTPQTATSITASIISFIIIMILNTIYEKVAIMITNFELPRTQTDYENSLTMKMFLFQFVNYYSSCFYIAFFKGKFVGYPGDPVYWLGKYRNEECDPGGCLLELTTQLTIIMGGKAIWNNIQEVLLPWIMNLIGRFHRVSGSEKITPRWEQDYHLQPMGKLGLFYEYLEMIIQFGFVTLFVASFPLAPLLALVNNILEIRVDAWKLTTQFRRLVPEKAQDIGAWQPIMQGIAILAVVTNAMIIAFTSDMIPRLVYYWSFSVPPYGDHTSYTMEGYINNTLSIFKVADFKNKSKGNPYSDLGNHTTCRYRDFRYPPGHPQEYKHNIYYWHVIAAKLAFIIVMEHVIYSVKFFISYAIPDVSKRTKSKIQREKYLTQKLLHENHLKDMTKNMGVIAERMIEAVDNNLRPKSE

[1] = target: T2, TMEM16A (anoctamin 1, ANO1) (human (endogenous in CFBE)) (UniProt Q5XXA6); test: as above
T2 sequence: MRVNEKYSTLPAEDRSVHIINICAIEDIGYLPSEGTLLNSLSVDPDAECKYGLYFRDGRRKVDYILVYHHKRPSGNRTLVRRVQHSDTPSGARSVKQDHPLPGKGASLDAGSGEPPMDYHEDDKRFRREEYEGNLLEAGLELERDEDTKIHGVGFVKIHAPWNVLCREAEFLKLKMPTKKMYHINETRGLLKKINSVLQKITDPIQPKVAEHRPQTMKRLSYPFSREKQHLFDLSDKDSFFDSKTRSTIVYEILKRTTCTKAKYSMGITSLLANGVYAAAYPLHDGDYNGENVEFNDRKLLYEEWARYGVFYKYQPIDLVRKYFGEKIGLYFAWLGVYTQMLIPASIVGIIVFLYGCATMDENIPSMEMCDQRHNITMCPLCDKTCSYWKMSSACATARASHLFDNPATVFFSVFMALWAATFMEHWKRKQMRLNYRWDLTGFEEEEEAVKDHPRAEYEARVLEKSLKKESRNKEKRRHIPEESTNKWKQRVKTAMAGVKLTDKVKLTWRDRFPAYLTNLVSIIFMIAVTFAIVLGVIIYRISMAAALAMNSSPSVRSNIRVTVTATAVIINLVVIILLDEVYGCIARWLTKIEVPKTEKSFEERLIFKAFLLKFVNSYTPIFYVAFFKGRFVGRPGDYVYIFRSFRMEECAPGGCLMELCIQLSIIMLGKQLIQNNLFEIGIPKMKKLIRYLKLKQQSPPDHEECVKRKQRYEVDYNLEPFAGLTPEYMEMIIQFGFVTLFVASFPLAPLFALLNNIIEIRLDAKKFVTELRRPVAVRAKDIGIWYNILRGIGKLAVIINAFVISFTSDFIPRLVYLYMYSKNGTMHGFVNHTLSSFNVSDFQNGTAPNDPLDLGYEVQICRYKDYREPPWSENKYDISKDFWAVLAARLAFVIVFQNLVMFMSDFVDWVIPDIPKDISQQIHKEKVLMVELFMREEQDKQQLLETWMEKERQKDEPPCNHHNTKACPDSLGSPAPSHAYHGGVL

**Q.** With “Cystic Fibrosis Transmembrane Conductance Regulator, wild type (from UniProt P13569 1-1480)” as the substance, how does the binding (TMEM16F) read?
**A.** Its binding is “no binding”.

**Q.** And the binding [1]?
**A.** The binding was “binds”.

**Q.** For “F508del-CFTR (from UniProt P13569 1-1480)”, which binding [1] is on record?
**A.** The binding was “binds”.
